Reference: the supplement of paper PMC10849652
This is one part of the list.

Chains of the proteins cited; added tags and fusions are not shown. Lines headed by an entry give the natural chain unless they say otherwise; changes in a name come on top.
UniProt Q86W74: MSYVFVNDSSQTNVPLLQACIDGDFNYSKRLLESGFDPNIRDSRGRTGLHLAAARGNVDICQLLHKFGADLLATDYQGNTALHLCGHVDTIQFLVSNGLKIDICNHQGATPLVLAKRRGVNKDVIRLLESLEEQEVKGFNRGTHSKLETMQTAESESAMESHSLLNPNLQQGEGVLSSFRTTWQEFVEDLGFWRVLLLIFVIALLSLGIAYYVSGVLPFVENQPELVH
UniProt P02654: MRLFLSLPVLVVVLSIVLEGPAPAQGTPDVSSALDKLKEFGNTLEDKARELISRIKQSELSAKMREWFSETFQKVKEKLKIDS
UniProt O43299: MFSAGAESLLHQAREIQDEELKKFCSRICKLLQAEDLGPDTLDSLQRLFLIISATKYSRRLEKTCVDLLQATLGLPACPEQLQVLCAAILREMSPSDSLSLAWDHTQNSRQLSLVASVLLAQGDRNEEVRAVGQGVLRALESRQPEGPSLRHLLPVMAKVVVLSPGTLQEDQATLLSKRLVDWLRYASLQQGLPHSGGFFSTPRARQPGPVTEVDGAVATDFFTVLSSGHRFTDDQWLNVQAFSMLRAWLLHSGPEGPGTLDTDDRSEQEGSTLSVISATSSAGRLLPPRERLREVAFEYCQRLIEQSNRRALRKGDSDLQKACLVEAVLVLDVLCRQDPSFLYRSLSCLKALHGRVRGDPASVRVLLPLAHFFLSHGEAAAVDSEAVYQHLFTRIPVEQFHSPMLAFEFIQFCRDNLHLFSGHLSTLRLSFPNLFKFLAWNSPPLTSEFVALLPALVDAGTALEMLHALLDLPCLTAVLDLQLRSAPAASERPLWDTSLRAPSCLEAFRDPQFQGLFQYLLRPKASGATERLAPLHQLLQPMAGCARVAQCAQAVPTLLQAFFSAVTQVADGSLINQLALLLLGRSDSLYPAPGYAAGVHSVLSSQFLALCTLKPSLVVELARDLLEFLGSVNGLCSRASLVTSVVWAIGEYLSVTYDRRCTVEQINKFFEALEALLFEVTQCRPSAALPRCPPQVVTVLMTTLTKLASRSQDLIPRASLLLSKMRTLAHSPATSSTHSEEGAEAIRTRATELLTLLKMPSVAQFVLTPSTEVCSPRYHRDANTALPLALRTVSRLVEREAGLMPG
UniProt P52566: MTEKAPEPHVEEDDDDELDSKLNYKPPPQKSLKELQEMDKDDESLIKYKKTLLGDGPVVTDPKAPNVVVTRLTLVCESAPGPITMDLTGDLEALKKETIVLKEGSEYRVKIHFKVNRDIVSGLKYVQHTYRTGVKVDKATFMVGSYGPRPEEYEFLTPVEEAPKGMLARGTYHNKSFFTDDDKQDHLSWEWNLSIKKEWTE
UniProt Q92888: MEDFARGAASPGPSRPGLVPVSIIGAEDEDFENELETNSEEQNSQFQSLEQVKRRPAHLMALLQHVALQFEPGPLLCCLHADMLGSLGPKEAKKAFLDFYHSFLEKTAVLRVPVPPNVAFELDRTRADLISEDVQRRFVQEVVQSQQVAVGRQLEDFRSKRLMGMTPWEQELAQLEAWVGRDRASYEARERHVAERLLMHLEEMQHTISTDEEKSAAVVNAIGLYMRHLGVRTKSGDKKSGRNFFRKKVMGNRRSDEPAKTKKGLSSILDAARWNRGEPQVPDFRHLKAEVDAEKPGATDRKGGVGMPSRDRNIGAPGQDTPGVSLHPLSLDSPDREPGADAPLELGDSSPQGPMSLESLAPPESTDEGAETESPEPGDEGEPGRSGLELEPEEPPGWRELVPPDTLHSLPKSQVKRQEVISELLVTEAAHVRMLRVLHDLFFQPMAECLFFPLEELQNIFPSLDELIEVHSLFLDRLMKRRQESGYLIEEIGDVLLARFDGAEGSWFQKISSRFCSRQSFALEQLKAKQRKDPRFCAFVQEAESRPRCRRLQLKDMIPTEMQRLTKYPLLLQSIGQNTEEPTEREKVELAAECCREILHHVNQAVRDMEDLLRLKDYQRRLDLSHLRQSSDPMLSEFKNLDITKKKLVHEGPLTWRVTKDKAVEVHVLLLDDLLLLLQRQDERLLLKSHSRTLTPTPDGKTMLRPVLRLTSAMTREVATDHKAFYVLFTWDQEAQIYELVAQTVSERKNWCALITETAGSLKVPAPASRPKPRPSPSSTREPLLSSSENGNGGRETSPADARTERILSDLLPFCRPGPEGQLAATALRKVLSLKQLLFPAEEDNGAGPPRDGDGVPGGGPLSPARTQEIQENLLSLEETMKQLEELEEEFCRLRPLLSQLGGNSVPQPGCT
UniProt Q9UJX4, whole entry, looked up: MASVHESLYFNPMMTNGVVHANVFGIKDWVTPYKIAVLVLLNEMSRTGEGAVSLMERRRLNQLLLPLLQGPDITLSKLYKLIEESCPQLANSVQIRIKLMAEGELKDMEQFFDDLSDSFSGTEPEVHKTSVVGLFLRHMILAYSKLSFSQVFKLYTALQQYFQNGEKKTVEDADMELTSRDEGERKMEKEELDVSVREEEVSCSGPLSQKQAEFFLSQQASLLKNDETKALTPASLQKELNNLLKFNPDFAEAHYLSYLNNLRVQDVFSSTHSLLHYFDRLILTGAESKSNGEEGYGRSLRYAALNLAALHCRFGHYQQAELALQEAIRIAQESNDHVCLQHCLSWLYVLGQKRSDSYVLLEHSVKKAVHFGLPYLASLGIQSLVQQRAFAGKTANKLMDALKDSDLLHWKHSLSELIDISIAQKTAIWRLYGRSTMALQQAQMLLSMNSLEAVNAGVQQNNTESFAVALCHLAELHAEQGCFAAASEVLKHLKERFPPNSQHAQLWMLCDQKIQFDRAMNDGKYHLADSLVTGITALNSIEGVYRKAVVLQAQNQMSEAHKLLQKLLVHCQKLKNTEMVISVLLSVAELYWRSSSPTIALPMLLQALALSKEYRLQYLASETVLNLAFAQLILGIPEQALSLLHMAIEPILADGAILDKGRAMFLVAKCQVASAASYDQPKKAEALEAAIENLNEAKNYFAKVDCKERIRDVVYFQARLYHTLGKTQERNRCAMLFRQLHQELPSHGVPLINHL
UniProt Q8IWW6: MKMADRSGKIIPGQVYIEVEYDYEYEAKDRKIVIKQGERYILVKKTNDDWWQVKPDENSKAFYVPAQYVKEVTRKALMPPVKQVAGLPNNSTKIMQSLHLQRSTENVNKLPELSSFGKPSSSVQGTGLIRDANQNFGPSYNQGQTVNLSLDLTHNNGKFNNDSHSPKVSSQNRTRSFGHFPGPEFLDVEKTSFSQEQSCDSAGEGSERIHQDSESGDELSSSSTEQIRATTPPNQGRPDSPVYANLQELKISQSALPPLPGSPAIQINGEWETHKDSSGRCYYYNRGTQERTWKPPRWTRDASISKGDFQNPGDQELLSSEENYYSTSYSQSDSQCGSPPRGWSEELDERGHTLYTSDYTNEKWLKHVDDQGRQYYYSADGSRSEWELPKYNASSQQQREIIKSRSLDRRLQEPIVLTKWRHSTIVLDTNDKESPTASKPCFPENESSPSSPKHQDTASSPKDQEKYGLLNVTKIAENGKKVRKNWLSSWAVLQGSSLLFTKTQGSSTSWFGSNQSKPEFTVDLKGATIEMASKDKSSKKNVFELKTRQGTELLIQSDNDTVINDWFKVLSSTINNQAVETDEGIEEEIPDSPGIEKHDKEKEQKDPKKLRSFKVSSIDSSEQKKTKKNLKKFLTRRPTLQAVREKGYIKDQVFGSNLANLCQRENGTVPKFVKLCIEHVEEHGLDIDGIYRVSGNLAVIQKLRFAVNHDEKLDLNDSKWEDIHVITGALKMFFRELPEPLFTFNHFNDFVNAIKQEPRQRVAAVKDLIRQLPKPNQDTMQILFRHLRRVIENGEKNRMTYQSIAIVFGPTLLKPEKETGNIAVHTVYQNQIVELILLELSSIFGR
UniProt P27695, whole entry, looked up: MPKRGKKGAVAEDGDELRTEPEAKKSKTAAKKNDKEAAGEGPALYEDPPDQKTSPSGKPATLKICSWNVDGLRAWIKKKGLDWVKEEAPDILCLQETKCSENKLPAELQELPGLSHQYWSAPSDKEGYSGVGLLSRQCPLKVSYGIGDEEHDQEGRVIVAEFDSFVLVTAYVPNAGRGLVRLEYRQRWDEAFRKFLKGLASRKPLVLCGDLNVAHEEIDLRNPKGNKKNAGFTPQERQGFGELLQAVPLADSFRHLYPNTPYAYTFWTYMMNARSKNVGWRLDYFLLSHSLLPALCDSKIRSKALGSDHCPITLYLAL
UniProt Q63HQ0: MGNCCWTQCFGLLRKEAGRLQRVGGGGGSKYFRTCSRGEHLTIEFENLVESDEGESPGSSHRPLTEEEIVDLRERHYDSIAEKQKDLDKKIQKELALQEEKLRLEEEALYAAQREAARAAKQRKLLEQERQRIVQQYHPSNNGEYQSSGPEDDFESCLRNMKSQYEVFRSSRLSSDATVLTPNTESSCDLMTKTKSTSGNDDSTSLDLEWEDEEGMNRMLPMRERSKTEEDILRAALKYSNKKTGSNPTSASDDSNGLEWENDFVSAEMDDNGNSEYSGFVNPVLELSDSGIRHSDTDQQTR
UniProt Q8WVL7: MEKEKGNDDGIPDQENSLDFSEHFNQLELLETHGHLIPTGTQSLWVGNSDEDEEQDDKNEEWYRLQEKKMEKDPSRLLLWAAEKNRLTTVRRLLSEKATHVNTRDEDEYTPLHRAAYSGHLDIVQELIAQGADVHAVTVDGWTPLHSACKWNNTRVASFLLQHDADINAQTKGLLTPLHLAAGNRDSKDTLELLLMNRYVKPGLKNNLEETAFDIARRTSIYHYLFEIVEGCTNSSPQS
UniProt Q92688: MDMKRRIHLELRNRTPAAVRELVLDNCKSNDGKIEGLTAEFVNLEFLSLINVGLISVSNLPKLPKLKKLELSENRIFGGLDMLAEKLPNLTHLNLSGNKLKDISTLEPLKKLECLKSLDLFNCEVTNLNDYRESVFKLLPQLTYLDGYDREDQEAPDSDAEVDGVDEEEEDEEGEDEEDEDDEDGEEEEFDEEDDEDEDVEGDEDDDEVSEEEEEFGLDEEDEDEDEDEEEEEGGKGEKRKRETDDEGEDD
UniProt Q9NP61: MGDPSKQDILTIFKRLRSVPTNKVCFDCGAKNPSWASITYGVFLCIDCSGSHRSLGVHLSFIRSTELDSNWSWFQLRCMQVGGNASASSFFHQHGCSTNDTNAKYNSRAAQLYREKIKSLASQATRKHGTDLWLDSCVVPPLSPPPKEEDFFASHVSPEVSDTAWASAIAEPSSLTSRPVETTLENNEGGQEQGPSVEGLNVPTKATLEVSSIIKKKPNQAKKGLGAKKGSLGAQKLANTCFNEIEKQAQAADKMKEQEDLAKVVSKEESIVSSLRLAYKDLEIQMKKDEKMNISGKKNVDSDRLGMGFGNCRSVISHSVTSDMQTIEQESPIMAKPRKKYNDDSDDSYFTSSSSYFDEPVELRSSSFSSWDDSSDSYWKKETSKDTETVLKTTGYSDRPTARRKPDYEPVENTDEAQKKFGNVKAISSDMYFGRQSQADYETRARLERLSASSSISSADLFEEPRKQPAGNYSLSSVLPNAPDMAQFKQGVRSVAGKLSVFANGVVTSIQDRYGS
UniProt P02649, whole entry, looked up: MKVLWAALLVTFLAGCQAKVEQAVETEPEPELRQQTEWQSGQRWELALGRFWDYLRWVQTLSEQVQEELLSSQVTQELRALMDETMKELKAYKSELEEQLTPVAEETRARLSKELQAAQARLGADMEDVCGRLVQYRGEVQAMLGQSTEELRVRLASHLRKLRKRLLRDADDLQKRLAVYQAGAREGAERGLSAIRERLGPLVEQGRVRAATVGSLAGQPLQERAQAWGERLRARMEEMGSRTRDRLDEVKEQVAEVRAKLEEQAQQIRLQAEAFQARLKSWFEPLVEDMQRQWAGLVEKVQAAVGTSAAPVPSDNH
UniProt Q9Y2T2: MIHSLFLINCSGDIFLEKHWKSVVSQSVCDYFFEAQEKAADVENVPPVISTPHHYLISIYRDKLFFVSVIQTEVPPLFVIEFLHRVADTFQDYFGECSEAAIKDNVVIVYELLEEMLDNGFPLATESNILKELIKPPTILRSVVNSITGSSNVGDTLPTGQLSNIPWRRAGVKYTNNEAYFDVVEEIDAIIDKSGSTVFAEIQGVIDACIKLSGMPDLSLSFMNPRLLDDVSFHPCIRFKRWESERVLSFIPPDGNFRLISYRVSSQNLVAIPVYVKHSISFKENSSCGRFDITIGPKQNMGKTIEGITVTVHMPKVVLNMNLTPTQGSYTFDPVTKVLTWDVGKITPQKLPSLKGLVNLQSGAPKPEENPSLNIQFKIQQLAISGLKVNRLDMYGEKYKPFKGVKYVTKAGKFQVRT
UniProt Q96AK3: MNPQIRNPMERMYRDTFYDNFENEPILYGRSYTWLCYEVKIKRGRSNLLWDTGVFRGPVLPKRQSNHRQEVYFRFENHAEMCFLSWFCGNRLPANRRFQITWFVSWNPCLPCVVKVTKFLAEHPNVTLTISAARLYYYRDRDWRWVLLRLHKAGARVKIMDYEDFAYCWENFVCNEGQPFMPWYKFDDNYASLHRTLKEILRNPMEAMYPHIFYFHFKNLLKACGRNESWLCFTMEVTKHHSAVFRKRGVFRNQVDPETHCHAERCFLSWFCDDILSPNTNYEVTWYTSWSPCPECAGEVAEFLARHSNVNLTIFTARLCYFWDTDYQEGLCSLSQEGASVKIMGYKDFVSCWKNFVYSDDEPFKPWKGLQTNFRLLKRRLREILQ

Legend:
Assay in all cases: log2 fold change, soluble protein after heating vs DMSO (PISA); higher = thermal stabilisation; K562 cells, 10 uM, 30 min; active = over 0.2 and 3.5 SD of the protein, either way, in both replicates (recomputed)
[1] = compound: NC(=O)Nc1cc(-c2cccc(F)c2)sc1C(=O)N[C@H]1CCCNC1
Summary of the method: (§1)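 K562 cells at 2×10^6 cells/mL were exposed to 10 μM compound for 30 min, then aliquots were heated for 3 min across 48°C-58°C, pooled, and extracted in PBS containing 0.5% NP-40 at 4°C. The supernatant after 21,000xg for 90 min was taken as soluble protein and measured by TMTpro 16plex LC-MS/MS with channel sums equalised. Thermal stability is reported relative to control samples, with values from duplicates. Fold changes are given on a log2 scale.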

[2] = compound: NC(=O)c1cnc(N[C@@H]2CCCC[C@@H]2N)nc1Nc1cccc(-n2nccn2)c1
Summary of the method: as §1

[3] = compound: NC1(c2ccc(-c3nc4ccn5c(=O)[nH]nc5c4cc3-c3ccccc3)cc2)CCC1
Summary of the method: as §1

[4] = compound: NCC(=O)Nc1ccc(-n2nc(C(F)(F)F)cc2-c2ccc3c(ccc4ccccc43)c2)cc1
Summary of the method: as §1

[5] = compound: Nc1ccccc1NC(=O)c1ccc(CNC(=O)OCc2cccnc2)cc1 [entinostat]
Summary of the method: as §1

[6] = compound: O=C(CCCCCCC(=O)Nc1ccccc1)NO [vorinostat]
Summary of the method: as §1

[7] = compound: O=C(CCCCCCNC(=O)c1cnc(N(c2ccccc2)c2ccccc2Cl)nc1)NO [citarinostat]
Summary of the method: as §1

[8] = compound: O=C(O)c1ccc2c(c1)nc(Nc1cccc(Cl)c1)c1ccncc12 [silmitasertib]
Summary of the method: as §1

[9] = compound: O=C1NC(=O)C(c2cnc3ccccn23)=C1c1cn2c3c(cc(F)cc13)CN(C(=O)N1CCCCC1)CC2
Summary of the method: as §1

[10] = compound: c1cc(OCCN2CCCCC2)cc(-c2n[nH]c3ccc(-c4nnc[nH]4)cc23)c1
Summary of the method: as §1

[11] = compound: c1cn2cc(-c3ccc4cn[nH]c4c3)nc(Nc3ccc(N4CCOCC4)cc3)c2n1 [entospletinib]
Summary of the method: as §1

Measured: log2 fold change

ANKRD46 (UniProt Q86W74)
inactive: [1] -0.021 | [2] 0.038 | [3] -0.188 | [4] 0.008 | [5] -0.031 | [6] 0.05 | [7] 0.157 | [8] 0.151 | [9] -0.021 | [10] 0.068 | [11] -0.177

AP3D1 isoform 5 (UniProt O14617)
inactive: [1] -0.011 | [2] -0.013 | [3] -0.076 | [4] 0.013 | [5] 0.021 | [6] 0.022 | [7] 0.054 | [8] 0.022 | [9] -0.003 | [10] -0.019 | [11] -0.012

ARF6 (UniProt P62330)
inactive: [1] -0.071 | [2] 0.056 | [3] -0.07 | [4] -0.093 | [5] -0.062 | [6] 0.025 | [7] 0.026 | [8] 0.047 | [9] -0.009 | [10] -0.052 | [11] -0.046

APOC1 (UniProt P02654)
inactive: [1] 0.01 | [2] -0.001 | [3] -0.036 | [4] 0.063 | [5] -0.006 | [6] -0.221 | [7] 0.024 | [8] -0.002 | [9] -0.078 | [10] -0.057 | [11] 0.056

AP5Z1 (UniProt O43299)
inactive: [1] -0.067 | [2] -0.131 | [3] -0.011 | [4] -0.037 | [5] -0.081 | [6] 0.099 | [7] -0.175 | [8] -0.031 | [9] 0.224 | [10] -0.108 | [11] 0.239

APOM (UniProt O95445)
inactive: [1] -0.151 | [2] -0.028 | [3] 0.047 | [4] 0.04 | [5] -0.009 | [6] 0.068 | [7] -0.042 | [8] 0.106 | [9] -0.016 | [10] 0.435 | [11] 0.223

APOBR (UniProt Q0VD83)
inactive: [1] -0.044 | [2] -0.043 | [3] 0.009 | [4] 0.001 | [5] -0.068 | [6] -0.055 | [7] -0.033 | [8] -0.043 | [9] -0.056 | [10] -0.043 | [11] 0.015

ANO10 (UniProt Q9NW15)
inactive: [1] -0.021 | [2] -0.049 | [3] -0.048 | [4] -0.018 | [5] 0.02 | [6] 0.021 | [7] 0.053 | [8] -0.004 | [9] -0.095 | [10] 0.009 | [11] 0.004

ANTXR2 isoform 4 (UniProt P58335)
inactive: [1] -0.105 | [2] 0.014 | [3] 0.029 | [4] 0.021 | [5] -0.052 | [6] -0.013 | [7] 0.04 | [8] 0.032 | [9] -0.027 | [10] -0.068 | [11] 0.025

ARHGDIB (UniProt P52566)
inactive: [1] -0.019 | [2] -0.083 | [3] -0.083 | [4] -0.073 | [5] -0.003 | [6] -0.021 | [7] 0.023 | [8] 0.019 | [9] -0.051 | [10] 0.025 | [11] 0.003

ARHGEF1 isoform 3 (UniProt Q92888)
inactive: [1] 0.073 | [2] 0.037 | [3] 0.011 | [4] 0.014 | [5] 0.058 | [6] 0.056 | [7] 0.064 | [8] 0.094 | [9] 0.038 | [10] -0.01 | [11] 0.134

ANXA11 (UniProt P50995)
inactive: [1] -0.01 | [2] -0.028 | [3] -0.096 | [4] -0.052 | [5] 0.05 | [6] -0.027 | [7] 0.056 | [8] -0.001 | [9] -0.055 | [10] 0.019 | [11] -0.012

ARID1A (UniProt O14497)
inactive: [1] 0.163 | [2] -0.095 | [3] -0.037 | [4] -0.107 | [5] 0.115 | [6] 0.011 | [7] 0.216 | [8] 0.012 | [9] 0.104 | [10] 0.402 | [11] -0.103

ANAPC4 isoform 3 (UniProt Q9UJX5)
inactive: [1] -0.03 | [2] -0.038 | [3] -0.042 | [4] -0.021 | [5] 0 | [6] -0.035 | [7] 0.042 | [8] 0.025 | [9] -0.031 | [10] -0.055 | [11] 0.005

ANAPC5 (UniProt Q9UJX4)
inactive: [1] 0.006 | [2] 0.012 | [3] -0.03 | [4] 0.014 | [5] -0.001 | [6] 0.024 | [7] 0.02 | [8] 0.016 | [9] 0.005 | [10] -0.047 | [11] 0.013

ANAPC16 (UniProt Q96DE5)
inactive: [1] -0.326 | [2] -0.164 | [3] -0.052 | [4] 0.029 | [5] -0.206 | [6] -0.023 | [7] 0.009 | [8] 0.023 | [9] -0.06 | [10] -0.024 | [11] -0.005

ARHGAP12 (UniProt Q8IWW6)
inactive: [1] 0.052 | [2] -0.059 | [3] -0.041 | [4] 0.085 | [5] -0.092 | [6] 0.095 | [7] 0.046 | [8] 0.022 | [9] -0.088 | [10] 0.016 | [11] -0.076

APEX1 (UniProt P27695)
inactive: [1] -0.046 | [2] -0.029 | [3] -0.088 | [4] -0.089 | [5] 0.033 | [6] 0.038 | [7] 0.061 | [8] -0.068 | [9] -0.111 | [10] 0.05 | [11] -0.017

AP1AR (UniProt Q63HQ0)
inactive: [1] -0.038 | [2] 0 | [3] 0.241 | [4] 0.045 | [5] -0.068 | [6] -0.049 | [7] 0.091 | [8] 0.015 | [9] -0.005 | [10] 0.06 | [11] 0.04

AP1G1 isoform 2 (UniProt O43747)
inactive: [1] -0.032 | [2] -0.032 | [3] -0.08 | [4] -0.021 | [5] 0.025 | [6] 0.092 | [7] 0.055 | [8] 0.111 | [9] -0.051 | [10] -0.01 | [11] 0.026

APOL2 (UniProt J3KQL8)
inactive: [1] -0.076 | [2] -0.122 | [3] -0.062 | [4] -0.039 | [5] 0.012 | [6] -0.111 | [7] -0.083 | [8] -0.032 | [9] 0.022 | [10] -0.006 | [11] -0.097

Retrieved one by one from the entries so far, two records:
AP1G1 isoform 2 (UniProt O43747)
inactive: [1] -0.032 | [2] -0.032 | [3] -0.08 | [4] -0.021 | [5] 0.025 | [6] 0.092 | [7] 0.055 | [8] 0.111 | [9] -0.051 | [10] -0.01 | [11] 0.026

APOL2 (UniProt J3KQL8)
inactive: [1] -0.076 | [2] -0.122 | [3] -0.062 | [4] -0.039 | [5] 0.012 | [6] -0.111 | [7] -0.083 | [8] -0.032 | [9] 0.022 | [10] -0.006 | [11] -0.097

(list continues)

ANKRD49 (UniProt Q8WVL7)
inactive: [1] 0.025 | [2] -0.011 | [3] -0.002 | [4] -0.019 | [5] 0.037 | [6] 0.084 | [7] 0.041 | [8] 0.002 | [9] 0.013 | [10] -0.014 | [11] -0.025

ANP32B (UniProt Q92688)
inactive: [1] -0.123 | [2] -0.047 | [3] -0.01 | [4] -0.047 | [5] -0.041 | [6] 0.002 | [7] 0.026 | [8] -0.03 | [9] -0.157 | [10] -0.005 | [11] -0.022

ARFGAP3 (UniProt Q9NP61)
inactive: [1] -0.003 | [2] -0.021 | [3] -0.013 | [4] -0.017 | [5] -0.004 | [6] 0.025 | [7] 0.041 | [8] 0.023 | [9] -0.101 | [10] 0.015 | [11] 0.021

APOE (UniProt P02649)
inactive: [1] 0.01 | [2] 0.041 | [3] 0.018 | [4] 0.026 | [5] -0.06 | [6] 0.021 | [7] 0.011 | [8] -0.028 | [9] 0.043 | [10] 0.039 | [11] 0.107

AP3M1 (UniProt Q9Y2T2)
inactive: [1] -0.012 | [2] -0.07 | [3] -0.047 | [4] -0.019 | [5] 0.037 | [6] -0.003 | [7] 0.068 | [8] 0.02 | [9] -0.029 | [10] -0.004 | [11] -0.041

APOBEC3D (UniProt Q96AK3)
inactive: [1] 0.012 | [2] -0.165 | [3] 0.151 | [4] 0.1 | [5] -0.011 | [7] -0.001 | [8] 0.167 | [9] 0.179 | [10] -0.15 | [11] 0.079
